Measured values taken from article PMC6515519 (Molecules, 2019).
Strings that start with PEPTIDE1 are HELM notation: dots part the residues, brackets hold end groups and non-standard residues.

Assay: general procedure: Fmoc solid-phase peptide synthesis; rink-amide-MBHA (100–200 mesh), 0.66 equivalents/g substitution; HBTU, DIEA
Conditions: whole synthesis, 214 nm

Substance | final HPLC purity
PEPTIDE1{[ac].H.R.[dF].[Tic].[am]}$$$$V2.0 | >99%
Ac-His-Arg-(pCN)DPhe-Tic-NH2 | >97%
Ac-His-DPhe-Arg-Trp-NH2 | >98%
PEPTIDE1{[ac].H.R.[dBip].[Tic].[am]}$$$$V2.0 | >96%
Ac-His-Arg-(pCl)DPhe-Tic-NH2 | >97%
Ac-His-Arg-(pMe)DPhe-Tic-NH2 | >97%
Ac-His-Arg-(3,4-diCl)DPhe-Tic-NH2 | >97%
Ac-His-Arg-(pF)DPhe-Tic-NH2 | >95%
Ac-His-Arg-(pCF3)DPhe-Tic-NH2 | >98%
PEPTIDE1{[ac].H.R.[dY].[Tic].[am]}$$$$V2.0 | >96%
Ac-His-Arg-(ptBu)DPhe-Tic-NH2 | >95%
Ac-His-Arg-(pBr)DPhe-Tic-NH2 | >98%
Ac-His-Arg-(pI)DPhe-Tic-NH2 | >97%
